Laboratory results: PubChem BioAssay AID504774 (Drosophila RNAi Screening Center, 2011)
The screen tested about 23,000 reagents; this is an unselected part of those that have a named target and a result. 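Values are quantile-normalised luminescence on an arbitrary scale; higher means more cells surviving MMS.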 Reagents against one gene are numbered here. A plus sign joins genes that one reagent is predicted to hit.

- Aim: 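Genes required for cells to withstand methyl methanesulphonate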 (primary screen)
- System: Drosophila Kc167 cells
- Reagent: long dsRNA against Drosophila genes, about 0.25 µg dsRNA per well
- Timing: about 6 days: 3 days knock-down, then 3 days with or without MMS
- Challenge: methyl methanesulphonate 0.004% (w/v) for 3 days after knock-down
- Detection: 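ATP-dependent luminescence as a measure of live cells in MMS-exposed wells, quantile normalised within each plate, with replicate values also given as a mean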
- Scale: mean viability with MMS and viability with MMS: higher = more surviving cells after MMS

no.	Target gene	reagent	mean viability with MMS	viability with MMS, replicate 1	viability with MMS, replicate 2
1	CG10184	1	3.51e6	4.01e6	3.97e6
2	CG10804	1	3.56e6	4.00e6	4.08e6
3	Best1	1	3.54e6	4.18e6	4.11e6
4	CG13516	1	3.67e6	4.16e6	4.16e6
5	fit	1	3.71e6	4.41e6	4.01e6
6	Cpr72Ec	1	3.64e6	4.16e6	4.07e6
7	CG8915	1	3.71e6	4.35e6	4.12e6
8	CG7352	1	3.52e6	3.97e6	4.04e6
9	CG1317	1	3.51e6	3.98e6	3.99e6
10	Daxx	1	3.33e6	3.79e6	3.61e6
11	meso18E	1	3.53e6	3.98e6	4.03e6
12	CG7173	1	3.20e6	3.62e6	3.66e6
13	CG7173	2	2.83e6	2.88e6	3.31e6
14	Eig71Ee	1	3.52e6	4.02e6	3.96e6
15	OXA1L	1	3.65e6	4.07e6	4.21e6
16	chrb	1	3.56e6	3.93e6	4.14e6
17	CG2698	1	3.45e6	3.91e6	3.93e6
18	CG5883	1	3.63e6	4.05e6	4.12e6
19	Srp54k	1	3.64e6	4.24e6	4.04e6
20	Jupiter	1	3.45e6	3.86e6	3.94e6
21	Jupiter	2	3.65e6	4.02e6	4.18e6
22	Jupiter	3	3.57e6	4.01e6	4.07e6

10 of these entries in another layout:
Target gene | reagent | mean viability with MMS | viability with MMS, replicate 1 | viability with MMS, replicate 2
Cpr72Ec | 1 | 3.64e6 | 4.16e6 | 4.07e6
CG8915 | 1 | 3.71e6 | 4.35e6 | 4.12e6
CG7352 | 1 | 3.52e6 | 3.97e6 | 4.04e6
CG1317 | 1 | 3.51e6 | 3.98e6 | 3.99e6
Daxx | 1 | 3.33e6 | 3.79e6 | 3.61e6
meso18E | 1 | 3.53e6 | 3.98e6 | 4.03e6
CG7173 | 1 | 3.20e6 | 3.62e6 | 3.66e6
CG7173 | 2 | 2.83e6 | 2.88e6 | 3.31e6
Eig71Ee | 1 | 3.52e6 | 4.02e6 | 3.96e6
OXA1L | 1 | 3.65e6 | 4.07e6 | 4.21e6

The results go on:
no.	Target gene	reagent	mean viability with MMS	viability with MMS, replicate 1	viability with MMS, replicate 2
23	me31B	1	3.29e6	3.75e6	3.67e6
24	CG8176	1	3.65e6	4.11e6	4.08e6
25	CG32305	1	3.62e6	4.08e6	4.09e6
26	sphinx2	1	3.60e6	4.06e6	4.05e6
27	CG30083	1	3.49e6	4.02e6	3.93e6
28	dx	1	3.65e6	4.16e6	4.12e6
29	CG13245	1	3.46e6	3.75e6	4.07e6
30	CG2202	1	3.38e6	4.06e6	3.67e6
31	wls	1	3.63e6	4.19e6	4.05e6
32	CG32187	1	3.60e6	4.10e6	4.06e6
33	COX6AL2 + Ir75d	1	3.41e6	3.81e6	3.89e6
34	Rgl	1	3.40e6	3.83e6	3.83e6
35	Grd	1	3.61e6	4.08e6	4.10e6
36	Lectin-galC1	1	3.41e6	3.77e6	3.91e6
37	AnxB9	1	3.52e6	3.98e6	4.00e6
38	CG14327	1	3.27e6	3.70e6	3.69e6
39	CG11380	1	3.12e6	3.72e6	3.66e6
40	CG11380	2	3.35e6	3.91e6	3.69e6
41	mthl14	1	3.55e6	4.17e6	3.90e6
42	Ndae1	1	3.36e6	3.81e6	3.77e6
43	Ndae1	2	3.53e6	3.92e6	4.08e6
44	raptor	1	3.14e6	3.57e6	3.58e6
45	CG1738	1	3.57e6	4.05e6	4.03e6
46	phtf	1	3.62e6	4.05e6	4.12e6
47	CG11145	1	3.51e6	4.00e6	3.97e6
48	CG13876	1	3.61e6	4.14e6	4.02e6
49	Crz	1	3.70e6	4.15e6	4.26e6
50	Tusp	1	3.54e6	4.11e6	3.90e6
51	CG5181	1	3.66e6	4.22e6	4.10e6
52	CG33061	1	3.66e6	4.06e6	4.19e6
53	CG33061	2	3.47e6	3.99e6	3.93e6
54	CG12986	1	3.61e6	4.12e6	4.05e6
55	Pisd	1	3.51e6	3.92e6	4.05e6
56	Pkc53E	1	3.64e6	4.08e6	4.12e6
57	Pkc53E	2	3.59e6	4.11e6	4.04e6
58	Or46a	1	3.64e6	4.06e6	4.12e6
59	Or46a	2	3.57e6	4.07e6	4.00e6
60	Or46a	3	3.65e6	4.10e6	4.15e6
61	Ns4	1	3.44e6	3.81e6	4.01e6
62	Adar	1	3.57e6	4.21e6	3.88e6
63	Alp8	1	3.42e6	3.87e6	3.84e6
64	CG42450	1	3.50e6	4.08e6	3.88e6
65	CG42450	2	3.43e6	3.94e6	3.91e6
66	CG8925	1	3.50e6	3.89e6	4.04e6
67	CG8925	2	3.65e6	3.93e6	4.36e6
68	CG8925	3	3.63e6	4.04e6	4.23e6
